{
  "source": "the supplement of paper PMC8166895",
  "note": "Structures can show the parent of a compound that is named as a salt. The list shows a part of the results. Most values lie at the level of the controls, where differences are scatter.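 A single-replicate pilot screen of approved drugs and clinical or known-target compounds measured melting temperature via differential scanning fluorimetry. Top stabilizing hits raised the melting point by 2 °C or more; negative shifts indicate destabilization.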",
  "data": [
    {"tested_on": "SARS-CoV-2 main protease (Mpro, nsp5)", "test": "thermal shift ΔTm of Mpro relative to plate average Tm; higher = stronger thermal stabilization of Mpro (binding)", "conditions": "10 µM; protein concentration 1 µM", "units": {"thermal shift ΔTm of Mpro": "°C"}, "values": [
      {"smiles": "Cc1cnc(-c2cc(N3CCN(C(=O)CCS(C)(=O)=O)CC3)ncc2Cl)c(C)c1", "thermal shift ΔTm of Mpro": -0.163},
      {"smiles": "CC[C@@H]1C(=O)OC[C@@H]1Cc1cncn1C", "note": "[Pilocarpine HCl]", "thermal shift ΔTm of Mpro": -0.137},
      {"smiles": "O=c1c(-n2ccnn2)c[nH]n1-c1cc(N2CCOCC2)ncn1", "note": "[Molidustat]", "thermal shift ΔTm of Mpro": 0.202},
      {"smiles": "Oc1ccc(C(c2c[nH]c3ccccc23)c2c[nH]c3ccccc23)cc1", "thermal shift ΔTm of Mpro": 0.0473},
      {"smiles": "CN1CCc2c(c3ccccc3n2Cc2ccc(C(=O)NO)cc2)C1", "note": "[Tubastatin A]", "thermal shift ΔTm of Mpro": -0.22},
      {"smiles": "CN1CCc2c(c3ccccc3n2Cc2ccc(C(=O)NO)cc2)C1", "note": "[Tubastatin A HCl]", "thermal shift ΔTm of Mpro": 0.0418},
      {"smiles": "CN(c1ccccc1CNc1nc(Nc2ccc3c(c2)CC(=O)N3)ncc1C(F)(F)F)S(C)(=O)=O", "thermal shift ΔTm of Mpro": -0.0525},
      {"smiles": "CC(=O)CC(c1ccccc1)c1c(O)c2ccccc2oc1=O", "note": "(centres undefined) [Warfarin]", "thermal shift ΔTm of Mpro": 0.246},
      {"smiles": "CC(=O)CC(c1ccccc1)c1c(O)c2ccccc2oc1=O", "note": "(centres undefined) [Warfarin sodium]", "thermal shift ΔTm of Mpro": 0.226},
      {"smiles": "CC(C)COc1ccc(CNC(=O)N(Cc2ccc(F)cc2)C2CCN(C)CC2)cc1", "note": "[Pimavanserin tartrate]", "thermal shift ΔTm of Mpro": -0.16},
      {"smiles": "CC(C)COc1ccc(CNC(=O)N(Cc2ccc(F)cc2)C2CCN(C)CC2)cc1", "note": "[Pimavanserin]", "thermal shift ΔTm of Mpro": 0.0515},
      {"smiles": "C/C1=C\\C(=O)c2c(C)coc2C/C(C)=C/CC1", "note": "[Furanodienone]", "thermal shift ΔTm of Mpro": 0.0384},
      {"smiles": "S=C(S)N1CCCC1", "note": "[Pyrrolidinedithiocarbamate ammonium]", "thermal shift ΔTm of Mpro": -6.71},
      {"smiles": "CC(=O)c1cc2c(o1)C(=O)c1ccccc1C2=O", "note": "[Napabucasin]", "thermal shift ΔTm of Mpro": 0.148},
      {"smiles": "Cc1cc(C)c(/C=C2/C(=O)Nc3ccc(Cl)cc32)[nH]1", "thermal shift ΔTm of Mpro": -0.0418},
      {"smiles": "CCN(CC)CC(=O)Nc1c(C)cccc1C", "note": "[Lidocaine Hydrochloride hydrate]", "thermal shift ΔTm of Mpro": 0.231},
      {"smiles": "CCN(CC)CC(=O)Nc1c(C)cccc1C", "note": "[Lidocaine]", "thermal shift ΔTm of Mpro": 0.573},
      {"smiles": "c1ccc2c(CC3=NCCN3)cccc2c1", "note": "[Naphazoline HCl]", "thermal shift ΔTm of Mpro": 0.0724},
      {"smiles": "CC(=O)OCC(=O)[C@@]12OC(C)(C)O[C@@H]1C[C@H]1[C@@H]3C[C@H](F)C4=CC(=O)C=C[C@]4(C)[C@@]3(F)[C@@H](O)C[C@@]12C", "note": "[Fluocinonide]", "thermal shift ΔTm of Mpro": 0.0122},
      {"smiles": "CC(C=CC(=O)NO)=CC(C)C(=O)c1ccc(N(C)C)cc1", "note": "(centres undefined) [Trichostatin A (TSA)]", "thermal shift ΔTm of Mpro": -0.135},
      {"smiles": "CN1[C@@H]2CC(O)C[C@H]1[C@@H]1O[C@@H]12", "note": "(some centres undefined) [Scopine]", "thermal shift ΔTm of Mpro": 0.0498},
      {"smiles": "OCc1ccccc1O[C@@H]1O[C@H](CO)[C@@H](O)[C@H](O)[C@H]1O", "note": "[Salicin]", "thermal shift ΔTm of Mpro": 0.0772},
      {"smiles": "CN1C(CCl)Nc2cc(Cl)c(S(N)(=O)=O)cc2S1(=O)=O", "note": "(centres undefined) [Methyclothiazide]", "thermal shift ΔTm of Mpro": 0.122},
      {"smiles": "C=CC1=C(C(=O)O)N2C(=O)[C@@H](NC(=O)/C(=N\\O)c3csc(N)n3)[C@H]2SC1", "note": "[Cefdinir]", "thermal shift ΔTm of Mpro": -0.0211}
    ]}
  ]
}
